No constants are given. Whether binding was seen depends on the method and setting. Binding seen in cells or lysates may run through a third protein. Some binding calls cover weakened binding; strength is not graded here.

Chains of the proteins cited; added tags and fusions are not shown.
UniProt Q96EB6: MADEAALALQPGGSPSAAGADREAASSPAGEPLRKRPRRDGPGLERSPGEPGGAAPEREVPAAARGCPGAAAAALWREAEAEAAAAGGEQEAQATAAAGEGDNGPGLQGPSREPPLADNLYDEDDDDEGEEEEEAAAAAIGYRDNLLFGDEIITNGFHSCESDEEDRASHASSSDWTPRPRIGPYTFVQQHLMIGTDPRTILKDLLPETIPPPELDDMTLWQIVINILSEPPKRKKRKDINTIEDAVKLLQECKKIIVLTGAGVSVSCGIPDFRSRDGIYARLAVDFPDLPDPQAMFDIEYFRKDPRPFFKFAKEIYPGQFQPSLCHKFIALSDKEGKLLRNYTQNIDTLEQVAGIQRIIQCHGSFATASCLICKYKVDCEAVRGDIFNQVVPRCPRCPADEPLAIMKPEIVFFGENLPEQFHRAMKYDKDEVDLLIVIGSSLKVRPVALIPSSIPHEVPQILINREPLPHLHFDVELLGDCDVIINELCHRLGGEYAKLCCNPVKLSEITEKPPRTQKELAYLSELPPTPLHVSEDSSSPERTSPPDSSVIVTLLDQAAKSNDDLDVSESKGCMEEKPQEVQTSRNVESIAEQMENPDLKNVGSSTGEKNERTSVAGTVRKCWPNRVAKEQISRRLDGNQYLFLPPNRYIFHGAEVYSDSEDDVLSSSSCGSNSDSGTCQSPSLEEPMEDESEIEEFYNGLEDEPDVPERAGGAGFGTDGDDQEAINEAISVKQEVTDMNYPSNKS
UniProt P00441: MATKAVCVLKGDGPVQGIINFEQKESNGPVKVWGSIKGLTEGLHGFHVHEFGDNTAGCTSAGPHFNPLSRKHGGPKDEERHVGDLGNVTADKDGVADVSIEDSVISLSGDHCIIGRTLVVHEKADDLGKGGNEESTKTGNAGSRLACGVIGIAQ

This experiment addresses Flag-tagged SIRT1 wildtype (Sirtuin 1) (UniProt Q96EB6). Description: co-IP; HA-tagged SOD1 co-transfected with Flag-tagged SIRT1 into HCT-116 cells, anti-Flag agarose, SOD1 detected by immunoblotting. For orientation: A western blot detects proteins with antibodies after separation by electrophoresis.

For “HA-tagged SOD1 (from UniProt P00441 1-154) (enzyme)”, the binding result is on record as “binds”.

The values above are taken from publication PMC4653027.
